The values that follow come from doi:10.1101/2022.11.15.516536.

The target of assay [1] is Aim46p-Nd62 (S. cerevisiae) (UniProt P38885). The assay is described as follows: SEC. (In general: SEC sorts molecules by how far they enter the pores of the column.)
For assay [2], the target named is Aim18p-Nd70 (S. cerevisiae) (UniProt P38884). The assay is described as follows: SEC.

No constants are given. Whether binding was seen depends on the method and setting.

B1: Aim46p-Nd62 (domain or fragment, UniProt P38885 63-310)
chain: DDSQIKKADATSVAVDASISAFPKKMGPPQWPFSTQYELIGKGVRCVSSITFKAYGLGIYVAAEDKHLVSEVLDSKFLSQAFIDTAAPPSPENSHQDNLRAALNDPAKAPILINNLLDSGIRLMSKNTPIKAGSFKLLMDGTKKSVLKNPDSQSQDKDRLEAGFQELHDCFRSVKGLVARDDDFFIELNKDCSMNLSYYARKKDEFVILGTVKEPLIGKLLFAHYLAAVDPPSPEARKEVIDALVSLS
B1: the binding entry in assay [1] was “no binding”.

B2: Aim18p-Nd70 (domain or fragment, UniProt P38884 71-321)
chain: RDRPVQNDDKTDAFPSHTESIQVDSSVSDFPLTITALNFPVSTTFKLLGYGQRHVTFLRFKVYALGLYLAENDENLVSDTLNETYLHKYFLDVDDSKTPKENLARLLKRDDSKSVMMIDDLLDSGMRMLAKITPVRNTDFKHLKEGLVKTISKHPDVANNKDTLAKGLSELNDAFSRKGSVRKNDDLIIELLANGALQFSYHDSKNNEFEVMGVVNNQLVGKFLFSQYLCGEKSPSPQAKKTAIDKLITLL
B2: in assay [2], the binding entry is given as “no binding”.
